From PubChem BioAssay AID2685 (National Center for Advancing Translational Sciences (NCATS), 2010) come the findings set out here.

Each structure is given as a SMILES string. Some of the results follow. Further columns of the screen follow, without active or inactive calls. Most of these compounds were active or inconclusive in the main read-out, so they are no random draw. Words in brackets tell the shape of the fitted curve; partial curves, single points and poor fits give uncertain potencies.

The assay is described as follows: qHTS Assay for Lipid Storage Modulators in Drosophila S3 Cells.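 As to cell number change: cells counted by Cell Tracker Red CMTPX staining in the red channel.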 As to conditions: BODIPY lipid droplet fluorescence, 18-24 h; for cell number change: measured here: cell count max response, cells fed with added oleic acid. The gist of the method: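 Laser-scanning cytometry quantifies lipid droplet accumulation (500–530 nm total intensity; droplet/cell object ratio) in oleic acid-fed (400 uM added) Drosophila S3 cells treated with a concentration series. 20 uM Triacsin C defined 100% inhibition.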
(In general: Quantitative high-throughput screening tests each substance at several concentrations.)

Where [1] appears, read: measured here: cell number channel AC50, cells fed with added oleic acid.
[2] abbreviates: measured here: lipid fluorescence (Fed channel) AC50, cells fed with added oleic acid.

Turning to `On1c(-c2ccccc2Cl)nc2ccccc21`, the cell number change was -5.35%. The term AC50 denotes the concentration giving half of the maximal activity seen. High values mean activity only at high concentration, low ones activity at low concentration. On to `COc1cccc(/C=N/n2c(C3CCCCC3)n[nH]c2=S)c1`, for which the cell number change is -37.8%. Also, the AC50 under setting [1] was 25.9 µM [falling, single point]. In addition, the AC50 under setting [2] was 25.9 µM [falling, single point]. Take `COc1ccc2nc(/N=C/c3cccc(OC)c3O)sc2c1`: the cell number change is 9.72%. In addition, the concentration at half-maximal activity (AC50) under setting [2] was 0.58 µM [rising, single point]. For the molecule `O=C(Cn1cc([N+](=O)[O-])nc1[N+](=O)[O-])N1CCN(c2ccccc2)CC1`, the cell number change is -42.5%. The AC50 under setting [1] was 0.92 µM [falling, full curve, poor fit]. Also, the AC50 under setting [2] was 0.461 µM [falling, full curve].

Consider `O=S(Cc1ccc(Cl)cc1)CC(O)COc1ccc(Cl)cc1` (stereo unspecified), for which the cell number change was -12.7%. Turning to `COc1ccc(NC(=O)CN(C)C(=O)c2sc3ccccc3c2Cl)cc1`, the cell number change was -19%. Further, the AC50 under setting [1] was 0.092 µM [falling, full curve, poor fit]. Also, the AC50 under setting [2] was 14.6 µM [falling, partial curve]. With `N#CCC(=O)N/N=C/c1c2ccccc2cc2ccccc12`, the cell number change came out at 8.42%. Also, under setting [2], the AC50 was 18.4 µM [rising, partial curve]. As to `CCOc1ccccc1NC(=O)CN1C(=O)COc2ccc(S(=O)(=O)N3CCOCC3)cc21`, the cell number change was 34.7%.

Take `O=C(O)CCc1ccc(-c2ccc(Cl)cc2)n1CCC(=O)O`: the cell number change amounted to 2.24%. Besides, under setting [2], the AC50 was 14.6 µM [falling, single point]. `Cc1ccc2[nH]c(C(=O)N/N=C/c3ccccc3C(=O)O)c(-c3ccccc3)c2c1`: the cell number change was -22.8%. Also, the AC50 under setting [2] was 29.1 µM [falling, single point]. With `Cc1ccc(O)c(Nc2nc(-c3ccccc3)nc3ccccc23)c1`, the cell number change is -17.5%. In addition, the AC50 under setting [2] was 29.1 µM [falling, single point]. Consider `COc1ccc(-c2ccc(CCC(=O)O)n2CC(C)C)cc1`, for which the cell number change was found to be 59%. Moreover, under setting [1], the AC50 is 7.31 µM [rising, partial curve, poor fit]. Take `Cc1ccc(-n2c(SCC(=O)N/N=C/C=C/c3ccccc3[N+](=O)[O-])nc3ccccc3c2=O)cc1`: the cell number change amounted to 39%. Moreover, the AC50 under setting [1] was 0.82 µM [rising, full curve]. The AC50 under setting [2] is 1.46 µM [rising, full curve].

`CCOC(=O)CCP(=O)(O)C(C)(O)c1ccccc1` (stereo unspecified): the cell number change was determined as 35.5%. Further, under setting [1], the AC50 was 25.9 µM [rising, single point]. Also, under setting [2], the AC50 was 29.1 µM [falling, single point]. Consider `O=C(Nc1nnc(C2CC2)o1)c1ccc(S(=O)(=O)N2CCCc3ccccc32)cc1`, for which the cell number change stood at 20%. Also, under setting [2], the AC50 was 7.31 µM [rising, partial curve, poor fit]. As for `CCOC(=O)C1=NN(C(=O)Cc2ccccc2)C(O)(C(C)(C)C)C1` (stereo unspecified), the cell number change was determined as 13.4%. Under setting [2], the AC50 is 25.9 µM [rising, single point]. On to `Cc1cc(C(=O)COc2cccnc2[N+](=O)[O-])c(C)n1-c1ccccc1F`, for which the cell number change is -3.81%. The AC50 under setting [2] was 29.1 µM [falling, single point]. As for `O=C(COc1cccc2cccnc12)N1CCc2ccccc2C1`, under setting [1], the AC50 is 1.46 µM [rising, partial curve]. As for `CCCCCOc1ccc(Br)cc1/C(C)=N/NC1=NCCN1`, the cell number change is -72.1%. Besides, the AC50 under setting [1] was 18.4 µM [falling, partial curve]. Besides, under setting [2], the AC50 is 20.6 µM [falling, partial curve].

Take `CCCOc1ccc(C(O)(CCN2CCCCC2)c2ccccc2OC)cc1` (stereo unspecified): the cell number change worked out at 31.5%. Also, the half-maximal activity concentration (AC50) under setting [1] is 29.1 µM [rising, single point]. The AC50 under setting [2] is 23.1 µM [rising, partial curve]. As to `O=C(c1cccc(NC2=NC3CS(=O)(=O)CC3S2)c1)N1CCN(c2cccc(Cl)c2)CC1` (stereo unspecified), the cell number change was -4.61%. Turning to `Cc1noc(COc2ccccc2OCC(N)=O)c1Cl`, the cell number change was -22.7%. Moreover, the AC50 under setting [2] was 0.0651 µM [rising, full curve, poor fit]. `Cc1cc(NC(=O)CCSc2ccccc2)no1`: the cell number change is -5.52%. Moreover, the AC50 under setting [2] is 0.731 µM [falling, full curve, poor fit].

For `O=C1CCC(=O)N1c1cccc(-c2nc3ccccc3o2)c1`, the cell number change was 2.16%. The AC50 under setting [1] was 2.59 µM [rising, partial curve, poor fit]. Turning to `O=C(Nc1ccc(C(=O)O)cc1)/C(=C\c1ccco1)NC(=O)c1ccc(Br)o1`, the cell number change is -7.5%. `C/C(=N\NC(=O)c1ccc(Br)cc1)C1C(=O)c2ccccc2C1=O`: the cell number change was -36%. Moreover, the AC50 under setting [1] was 25.9 µM [falling, single point].

Turning to `Cc1noc(C)c1CSCC(=O)N(C)CC(=O)Nc1ccc(F)cc1`, the cell number change is -94.1%. In addition, the AC50 under setting [1] was 29.1 µM [falling, single point].

Consider `CSc1nsc(SC)c1C(=O)O`, for which the AC50 under setting [2] is 29.1 µM [falling, partial curve]. Regarding `O=Cc1ccc(N2CCCC2)c(F)c1`, the cell number change was -1.32%. On the same count and under the same terms, under `Cn1ncc([N+](=O)[O-])c1C(=O)Nc1ccccc1Cl` stands -6.61%. On to `Cc1ccc(-n2nnnc2SCC(=O)NC2CCS(=O)(=O)C2)c(C)c1` (stereo unspecified), for which the cell number change was -18.9%. Moreover, under setting [1], the AC50 is 1.64 µM [falling, partial curve, poor fit]. As for `O=C(CCN1C(=O)/C(=C\C=C\c2ccccc2)SC1=S)Nc1ccccc1C(=O)O`, the cell number change stood at 22.7%. Moreover, the AC50 under setting [1] was 4.11 µM [rising, full curve, poor fit]. On to `COc1ccc(C(=O)CSc2nnc(-c3cccnc3)n2Cc2ccco2)cc1`, for which the cell number change was found to be 63.6%. Under setting [1], the AC50 was 29.1 µM [rising, single point]. The half-maximal activity concentration (AC50) under setting [2] is 29.1 µM [rising, single point]. Take `COc1ccccc1N(C(=O)NCc1ccccc1)C1=NCC(C)S1` (stereo unspecified): the cell number change is -0.711%. In addition, the AC50 under setting [2] is 4.11 µM [rising, full curve, poor fit]. For `O=C(Nc1ccccc1Br)c1cc[n+]([O-])cc1`, the cell number change was 19.8%. With `CC(=O)Nc1ccc(C(=O)NC(CC(=O)O)c2ccc(Cl)cc2)cc1` (stereo unspecified), the AC50 under setting [2] was 18.4 µM [falling, partial curve]. For the molecule `COc1ccc(C(=O)N2N=C3CC(C)(C)OCC3C2c2ccccc2)cc1` (stereo unspecified), the cell number change is 10.1%. For `N#Cc1c(N)nc(SCc2ccncc2)c(C#N)c1-c1cccs1`, the cell number change was -9.21%. Further, the AC50 under setting [1] is 2.91 µM [rising, partial curve]. In addition, the AC50 under setting [2] is 3.26 µM [rising, full curve]. As to `COc1cc(CO)c(OC)c([N+](=O)[O-])c1`, the cell number change is -8.09%. For the same molecule, the AC50 under setting [2] was 6.51 µM [falling, single point]. Consider `CC(C)(C)C1CCC(=O)N(CCSc2ccccc2)CC1` (stereo unspecified), for which the AC50 under setting [2] was 20.6 µM [falling, single point].
